In patent EP4389150A1, “CONJUGATE COMPOUNDS AND THEIR USE IN CANCER TREATMENT AND DIAGNOSIS” (Technische Universität München, priority 2022, dated 2024):
Part of at least one peptide drawing is inferred or uncertain, most often the ends.

Test system: PC3-PIP cells / PC3-flu cells
Assay: Fluorescence microscopy of Ruc delivery in PSMA+ and PSMA- cells
Format: cell-based
Conditions: PSMA+ PC3-PIP versus PSMA- PC3-flu cells (Figure 4A)

CN(Cc1ccc(-c2[nH]c3cc(F)cc4c3c2CCNC4=O)cc1)C(=O)CCSSCCC(=O)NCCCC[C@@H](NC(=O)CCC(C(=O)O)N1CCN(CC(=O)O)CCN(CC(=O)O)CCN(CC(=O)O)CC1)C(=O)N[C@H](CC(=O)O)C(=O)N[C@H](Cc1ccc(O)cc1)C(=O)N[C@H](Cc1ccccc1)C(=O)N[C@@H](Cc1ccc2ccccc2c1)C(=O)NCCCCCC(=O)NCCCC[C@H](NC(=O)N[C@@H](CCC(=O)O)C(=O)O)C(=O)O (single isomer, unassigned) [Conjugate 11] was tested, and the “localization of Ruc fluorescence” value was “only PSMA+ cells showed Ruc fluorescence at the membrane and in the cell nucleus”.
